The values below come from the supplement of paper PMC8728848.

Some of the results follow.

Test in all cases: glycan array binding signal (z-score within array); higher = stronger binding
Holding throughout (conditions): glycan notation: IUPAC condensed, linker removed

The target of experiment [1] is Gal(b1-4)GlcNAc(b1-2)Man(a1-6)[Man(a1-3)]Man(b1-4)GlcNAc(b1-4)GlcNAc. Summed up: (§1)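 The Consortium for Functional Glycomics database supplied 3228 glycan arrays, of which those lacking an available protein sequence were dropped. The binding signal, a within-array Z-score, was averaged across arrays of the same protein sequence and across linkers. Negative scores can be read as non-binding.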

Experiment [2] has as its target Gal(b1-4)GlcNAc(b1-2)[Gal(b1-4)GlcNAc(b1-4)]Man(a1-3)[Gal(b1-4)GlcNAc(b1-2)Man(a1-6)]Man(b1-4)GlcNAc(b1-4)GlcNAc. Summed up: as §1
The target of experiment [3] is Gal(b1-4)GlcNAc(b1-2)[Gal(b1-4)GlcNAc(b1-4)]Man(a1-3)[Gal(b1-4)GlcNAc(b1-2)[Gal(b1-4)GlcNAc(b1-6)]Man(a1-6)]Man(b1-4)GlcNAc(b1-4)GlcNAc. Summed up: as §1
The target of experiment [4] is Gal(b1-4)GlcNAc(b1-2)[Gal(b1-4)GlcNAc(b1-4)]Man(a1-3)[GlcNAc(b1-4)][Gal(b1-4)GlcNAc(b1-2)Man(a1-6)]Man(b1-4)GlcNAc(b1-4)GlcNAc. Put shortly:
as §1

In experiment [5] the target is Gal(b1-4)GlcNAc(b1-2)[Gal(b1-4)GlcNAc(b1-4)]Man(a1-3)[GlcNAc(b1-4)][Gal(b1-4)GlcNAc(b1-2)[Gal(b1-4)GlcNAc(b1-6)]Man(a1-6)]Man(b1-4)GlcNAc(b1-4)GlcNAc. Summed up: as §1
Experiment [6] concerns the target Gal(b1-4)GlcNAc(b1-2)[Gal(b1-4)GlcNAc(b1-6)]Man(a1-6)[Gal(b1-4)GlcNAc(b1-2)Man(a1-3)]Man(b1-4)GlcNAc(b1-4)GlcNAc. Put shortly:
as §1

The target of experiment [7] is Gal(b1-4)GlcNAc(b1-2)[Gal(b1-4)GlcNAc(b1-6)]Man(a1-6)[Gal(b1-4)GlcNAc(b1-2)Man(a1-3)]Man(b1-4)GlcNAc(b1-4)[Fuc(a1-6)]GlcNAc. Summed up:
as §1

Experiment [8] has as its target Gal(b1-4)GlcNAc(b1-2)[Gal(b1-4)GlcNAc(b1-6)]Man(a1-6)[GlcNAc(b1-4)][Gal(b1-4)GlcNAc(b1-2)Man(a1-3)]Man(b1-4)GlcNAc(b1-4)GlcNAc. Put shortly: as §1
Experiment [9] addresses Gal(b1-4)GlcNAc(b1-2)[Gal(b1-4)GlcNAc(b1-6)]Man(a1-6)[GlcNAc(b1-4)][Gal(b1-4)GlcNAc(b1-2)[Gal(b1-4)GlcNAc(b1-4)]Man(a1-3)]Man(b1-4)GlcNAc(b1-4)[Fuc(a1-6)]GlcNAc. Put shortly:
as §1

For experiment [10], the target named is Gal(b1-4)GlcNAc(b1-3)Gal(b1-3)GalNAc. Put shortly:
as §1

Experiment [11] has as its target Gal(b1-4)GlcNAc(b1-3)Gal(b1-3)GlcNAc. Summed up: as §1
The target in experiment [12] is Gal(b1-4)GlcNAc(b1-3)Gal(b1-4)Glc. Summed up: as §1
In experiment [13] the target is Gal(b1-4)GlcNAc(b1-3)Gal(b1-4)GlcNAc. Summed up: as §1
The target of experiment [14] is Gal(b1-4)GlcNAc(b1-3)Gal(b1-4)GlcNAc(b1-2)Man(a1-3)[Gal(b1-4)GlcNAc(b1-3)Gal(b1-4)GlcNAc(b1-2)Man(a1-6)]Man(b1-4)GlcNAc(b1-4)GlcNAc. Put shortly:
as §1

Experiment [15] has as its target Gal(b1-4)GlcNAc(b1-3)Gal(b1-4)GlcNAc(b1-2)Man(a1-3)[Gal(b1-4)GlcNAc(b1-3)Gal(b1-4)GlcNAc(b1-2)Man(a1-6)]Man(b1-4)GlcNAc(b1-4)[Fuc(a1-6)]GlcNAc. Put shortly: as §1
The target in experiment [16] is Gal(b1-4)GlcNAc(b1-3)Gal(b1-4)GlcNAc(b1-2)[Gal(b1-4)GlcNAc(b1-3)Gal(b1-4)GlcNAc(b1-6)]Man(a1-6)[Gal(b1-4)GlcNAc(b1-3)Gal(b1-4)GlcNAc(b1-2)Man(a1-3)]Man(b1-4)GlcNAc(b1-4)GlcNAc. Summed up: as §1
Experiment [17] has as its target Gal(b1-4)GlcNAc(b1-3)Gal(b1-4)GlcNAc(b1-2)[Gal(b1-4)GlcNAc(b1-3)Gal(b1-4)GlcNAc(b1-6)]Man(a1-6)[Gal(b1-4)GlcNAc(b1-3)Gal(b1-4)GlcNAc(b1-2)Man(a1-3)]Man(b1-4)GlcNAc(b1-4)[Fuc(a1-6)]GlcNAc. Summed up: as §1
Experiment [18] has as its target Gal(b1-4)GlcNAc(b1-3)Gal(b1-4)GlcNAc(b1-3)Gal(b1-4)GlcNAc. Put shortly: as §1
Experiment [19] has as its target Gal(b1-4)GlcNAc(b1-3)Gal(b1-4)GlcNAc(b1-3)Gal(b1-4)GlcNAc(b1-2)Man(a1-3)[Gal(b1-4)GlcNAc(b1-3)Gal(b1-4)GlcNAc(b1-3)Gal(b1-4)GlcNAc(b1-2)Man(a1-6)]Man(b1-4)GlcNAc(b1-4)GlcNAc. Summed up:
as §1

Experiment [20] concerns the target Gal(b1-4)GlcNAc(b1-3)Gal(b1-4)GlcNAc(b1-3)Gal(b1-4)GlcNAc(b1-2)Man(a1-3)[Gal(b1-4)GlcNAc(b1-3)Gal(b1-4)GlcNAc(b1-3)Gal(b1-4)GlcNAc(b1-2)Man(a1-6)]Man(b1-4)GlcNAc(b1-4)[Fuc(a1-6)]GlcNAc. Summed up: as §1
The target in experiment [21] is Gal(b1-4)GlcNAc(b1-3)Gal(b1-4)GlcNAc(b1-3)Gal(b1-4)GlcNAc(b1-2)[Gal(b1-4)GlcNAc(b1-3)Gal(b1-4)GlcNAc(b1-3)Gal(b1-4)GlcNAc(b1-6)]Man(a1-6)[Gal(b1-4)GlcNAc(b1-3)Gal(b1-4)GlcNAc(b1-3)Gal(b1-4)GlcNAc(b1-2)Man(a1-3)]Man(b1-4)GlcNAc(b1-4)[Fuc(a1-6)]GlcNAc. Summed up: as §1
Experiment [22] deals with Gal(b1-4)GlcNAc(b1-3)Gal(b1-4)GlcNAc(b1-3)Gal(b1-4)GlcNAc(b1-3)Gal(b1-4)GlcNAc(b1-2)Man(a1-3)[Gal(b1-4)GlcNAc(b1-3)Gal(b1-4)GlcNAc(b1-3)Gal(b1-4)GlcNAc(b1-3)Gal(b1-4)GlcNAc(b1-2)Man(a1-6)]Man(b1-4)GlcNAc(b1-4)GlcNAc. Put shortly:
as §1

B1: SJCP3842 (Schistosoma japonicum) (protein)
chain: MFKMRIINLVNISTVLLLINLLQTKSRLVGKENGFMLTVSIYGAQLSDKMTSVPVSWTIDYEDPEKSAFKKLVTDSCDTFSEYVKSQIPKGSVDGQCTSHIFQRPGSGSGVSISLTLSFIYVDVTQPDTVALKTELEKHFANFVTIHSHKITQAQFRINQKAIVIPTGDKDAIDGSKWKIIAIIALVALAIVVIGGFIYICVK
Take B1: the “glycan array binding signal (z-score)” value was 0.841 in [1]; -1.14 in [2]; -0.482 in [3]; -0.392 in [4]; 0.354 in experiment [5]; -0.486 in experiment [6]. Moreover, the “glycan array binding signal (z-score)” value in [7] is -0.911; in experiment [8], 0.144; in experiment [9] it was -0.296; in experiment [10], -0.581; in experiment [11], 0.836; in experiment [12], 0.456. The “glycan array binding signal (z-score)” value in experiment [13] is -0.05; in experiment [14], 1.21; in [15] it was 1.02; in [16] it was 2; in experiment [17], -0.293; in experiment [18] it was 0.515. Also, the “glycan array binding signal (z-score)” value is 0.755 in [19], 1.55 in [20], 0.793 in experiment [21] and -1.19 in experiment [22].
